## Drug screen on melanoma cell lines: cell count

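The test systems are human melanoma cell lines, treated with two drugs together for 72 h and then stained and imaged. Values are the number of DAPI-stained nuclei as a percentage of the DMSO control: 100 is no effect, lower means fewer cells. Concentrations were fixed for each drug; these are the lower of two levels, a fifth of the higher. These are primary screening values without error estimates.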
This is part of the screen, not chosen by result.
An entry leaves out what has no value listed here.

First drug in all entries: midostaurin, 0.08 µM, CO[C@@H]1[C@H](N(C)C(=O)c2ccccc2)C[C@H]2O[C@]1(C)n1c3ccccc3c3c4c(c5c6ccccc6n2c5c31)C(=O)NC4

{"second drug": "COC(=O)c1sccc1S(=O)(=O)Nc1ccc(Nc2ccccc2)cc1OC at 1 µM", "G-361": 97.7, "C32": 78.1, "501mel": 113, "A101D": 84.6, "COLO 792": 89.8, "COLO 829": 70.8, "LOX IMVI": 96.8, "IST-MEL1": 97.3, "A2058": 74.5, "IPC-298": 94.8, "A375": 94.9, "MEL-HO": 71.4, "COLO 800": 110, "LB2518-MEL": 101}
{"second drug": "O=S(=O)(c1ccccc1)N(CC(F)(F)F)c1ccc(C(O)(C(F)(F)F)C(F)(F)F)cc1 at 1.4 µM", "G-361": 91.9, "C32": 79.8, "501mel": 104, "A101D": 97.6, "COLO 792": 93.7, "COLO 829": 82.0, "LOX IMVI": 81.9, "IST-MEL1": 98.3, "A2058": 92.0, "IPC-298": 87.5, "A375": 90.1, "MEL-HO": 89.3, "COLO 800": 114, "LB2518-MEL": 105}
{"second drug": "Cc1cc(SCc2sc(-c3ccc(C(F)(F)F)c(F)c3)nc2C)ccc1OCC(=O)O at 2 µM", "G-361": 80.2, "C32": 98.5, "501mel": 103, "A101D": 80.0, "COLO 792": 81.5, "COLO 829": 85.7, "LOX IMVI": 107, "IST-MEL1": 102, "A2058": 75.4, "IPC-298": 97.1, "A375": 106, "MEL-HO": 95.6, "COLO 800": 70.1, "LB2518-MEL": 102}
{"second drug": "CC(C)CCN1c2nc(Nc3cc(F)c(O)c(F)c3)ncc2N(C)C(=O)C1C (stereo not given) at 0.2 µM", "G-361": 95.7, "C32": 102, "501mel": 84.5, "A101D": 80.1, "COLO 792": 102, "COLO 829": 102, "LOX IMVI": 56.5, "IST-MEL1": 91.6, "A2058": 78.1, "IPC-298": 93.5, "A375": 90.4, "MEL-HO": 78.2, "COLO 800": 88.2, "LB2518-MEL": 96.8}
{"second drug": "CCN(CC)CCCCNc1ncc2cc(-c3cc(OC)cc(OC)c3)c(NC(=O)NC(C)(C)C)nc2n1 at 0.1 µM", "G-361": 98.1, "C32": 85.4, "501mel": 111, "A101D": 94.2, "COLO 792": 102, "COLO 829": 95.1, "LOX IMVI": 67.0, "IST-MEL1": 88.7, "A2058": 90.2, "IPC-298": 96.9, "A375": 88.8, "MEL-HO": 85.0, "COLO 800": 84.2, "LB2518-MEL": 106}
{"second drug": "CC(=O)O[C@@]12CO[C@@H]1C[C@H](O)[C@@]1(C)C(=O)[C@H](O)C3=C(C)[C@@H](OC(=O)[C@H](O)[C@@H](NC(=O)OC(C)(C)C)c4ccccc4)C[C@@](O)([C@@H](OC(=O)c4ccccc4)[C@H]21)C3(C)C at 0.0001 µM", "G-361": 17.6, "C32": 81.1, "A101D": 48.4, "COLO 792": 21.4, "COLO 829": 53.8, "LOX IMVI": 84.0, "IST-MEL1": 48.0, "A2058": 4.7, "IPC-298": 46.5, "A375": 10.4, "MEL-HO": 61.1, "COLO 800": 14.8, "LB2518-MEL": 51.7}
{"second drug": "COc1ccc(COc2ccc(Cc3cnc(N)nc3N)cc2OC)cc1 at 1 µM", "G-361": 88.9, "C32": 92.2, "501mel": 84.9, "A101D": 85.4, "COLO 792": 109, "COLO 829": 95.2, "LOX IMVI": 70.9, "IST-MEL1": 94.0, "A2058": 90.9, "IPC-298": 92.1, "A375": 95.8, "MEL-HO": 99.7, "COLO 800": 102, "LB2518-MEL": 85.6}

From a melanoma drug combination screen (doi:10.1371/journal.pone.0140310); values rounded.